US20200132665A1, “Method for in vitro detection of the proarrhythmogenic risk of a drug candidate on human induced pluripotent stem cell-derived cardiomyocytes (hiPSC-CM)” (priority 2018, published 2020)

Test system: Cor.4U® cardiomyocyte (hiPSC-CM)
Settings: nifedipine 1 μM, current-clamp at 1-min intervals over 10 min, Cor.4U cardiomyocyte (FIG. 14 dotted trace)

effect on AP plateau (AP shape): disappearance of the AP plateau
Compound: COC(=O)C1=C(C)NC(C)=C(C(=O)OC)C1c1ccccc1[N+](=O)[O-] [nifedipine]
